The text below walks through data of publication PMC12084419.

Sequences of proteins named here, by UniProt entry; tags and fusion partners are left off.
UniProt Q9UHP3: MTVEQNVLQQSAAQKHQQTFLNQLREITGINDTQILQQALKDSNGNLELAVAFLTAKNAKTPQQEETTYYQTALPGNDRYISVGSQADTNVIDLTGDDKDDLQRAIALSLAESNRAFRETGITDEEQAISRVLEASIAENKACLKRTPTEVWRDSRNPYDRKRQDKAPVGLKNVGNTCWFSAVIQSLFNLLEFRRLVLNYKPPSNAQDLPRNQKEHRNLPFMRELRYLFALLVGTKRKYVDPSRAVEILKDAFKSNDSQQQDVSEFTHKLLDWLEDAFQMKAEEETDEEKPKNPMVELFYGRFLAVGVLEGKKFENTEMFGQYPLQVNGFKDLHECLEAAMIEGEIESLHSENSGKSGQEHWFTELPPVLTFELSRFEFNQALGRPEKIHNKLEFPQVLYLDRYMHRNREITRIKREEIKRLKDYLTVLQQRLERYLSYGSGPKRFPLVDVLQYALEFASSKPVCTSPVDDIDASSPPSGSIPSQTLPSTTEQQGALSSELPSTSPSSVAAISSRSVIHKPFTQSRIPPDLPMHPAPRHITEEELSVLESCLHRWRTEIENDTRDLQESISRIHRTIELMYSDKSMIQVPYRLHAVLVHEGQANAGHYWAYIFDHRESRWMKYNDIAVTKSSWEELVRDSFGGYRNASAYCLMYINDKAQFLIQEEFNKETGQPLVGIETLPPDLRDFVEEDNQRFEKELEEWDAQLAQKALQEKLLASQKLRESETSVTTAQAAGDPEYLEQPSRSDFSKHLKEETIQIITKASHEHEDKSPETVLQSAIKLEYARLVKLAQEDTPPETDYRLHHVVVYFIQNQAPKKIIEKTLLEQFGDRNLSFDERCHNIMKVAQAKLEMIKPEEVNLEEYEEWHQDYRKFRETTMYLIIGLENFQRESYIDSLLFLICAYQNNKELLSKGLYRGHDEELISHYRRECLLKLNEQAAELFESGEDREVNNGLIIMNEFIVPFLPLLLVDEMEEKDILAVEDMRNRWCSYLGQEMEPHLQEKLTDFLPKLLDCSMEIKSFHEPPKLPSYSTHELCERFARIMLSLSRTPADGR

These are yes or no findings as the source states them, for the method shown. In cells and extracts the contact can be indirect. Some results given as binding are weak or reduced against the parent protein; the word gives no strength. Where a sequence is shown, tags or fusion partners need not be part of it.

Assay [1] addresses T1, Flag-KIFC1 (Kinesin Family Member C1, Flag-tagged) (UniProt Q9BW19).
T1 sequence: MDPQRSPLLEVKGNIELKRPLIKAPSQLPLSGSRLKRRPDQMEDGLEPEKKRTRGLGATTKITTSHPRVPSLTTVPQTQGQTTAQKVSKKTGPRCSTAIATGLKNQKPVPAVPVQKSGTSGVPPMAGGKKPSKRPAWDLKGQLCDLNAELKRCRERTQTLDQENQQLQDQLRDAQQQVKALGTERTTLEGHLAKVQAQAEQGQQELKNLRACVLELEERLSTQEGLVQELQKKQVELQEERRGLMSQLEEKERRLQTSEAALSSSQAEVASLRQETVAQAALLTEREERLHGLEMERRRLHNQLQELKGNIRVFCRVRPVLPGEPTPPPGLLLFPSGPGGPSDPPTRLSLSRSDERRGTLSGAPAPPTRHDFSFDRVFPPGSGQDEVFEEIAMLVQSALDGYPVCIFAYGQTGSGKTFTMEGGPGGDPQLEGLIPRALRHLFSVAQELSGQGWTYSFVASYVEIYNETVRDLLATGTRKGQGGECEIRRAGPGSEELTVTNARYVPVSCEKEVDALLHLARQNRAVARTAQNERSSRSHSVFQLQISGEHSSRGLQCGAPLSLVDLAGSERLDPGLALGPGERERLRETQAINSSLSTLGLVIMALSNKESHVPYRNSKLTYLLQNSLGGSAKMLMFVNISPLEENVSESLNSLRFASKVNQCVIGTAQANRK
The assay can be described thus: co-IP; HA-USP25, Flag-KIFC1 and His-MYCBP together; co-immunoprecipitation with antibodies to the tags (three panels); cells and bait of each panel not stated.

The target of assay [2] is T1, Flag-KIFC1 (Kinesin Family Member C1, Flag-tagged). The assay can be described thus: co-IP; Flag-KIFC1 and an HA-tagged partner exogenously co-expressed in HeLa and SiHa cells; NP-40 lysis buffer; anti-Flag affinity gel overnight at 4 °C; immunoblot.
The target in assay [3] is T2, KIFC1 of the Nanoluc luciferase assay (UniProt Q9BW19).
T2 sequence: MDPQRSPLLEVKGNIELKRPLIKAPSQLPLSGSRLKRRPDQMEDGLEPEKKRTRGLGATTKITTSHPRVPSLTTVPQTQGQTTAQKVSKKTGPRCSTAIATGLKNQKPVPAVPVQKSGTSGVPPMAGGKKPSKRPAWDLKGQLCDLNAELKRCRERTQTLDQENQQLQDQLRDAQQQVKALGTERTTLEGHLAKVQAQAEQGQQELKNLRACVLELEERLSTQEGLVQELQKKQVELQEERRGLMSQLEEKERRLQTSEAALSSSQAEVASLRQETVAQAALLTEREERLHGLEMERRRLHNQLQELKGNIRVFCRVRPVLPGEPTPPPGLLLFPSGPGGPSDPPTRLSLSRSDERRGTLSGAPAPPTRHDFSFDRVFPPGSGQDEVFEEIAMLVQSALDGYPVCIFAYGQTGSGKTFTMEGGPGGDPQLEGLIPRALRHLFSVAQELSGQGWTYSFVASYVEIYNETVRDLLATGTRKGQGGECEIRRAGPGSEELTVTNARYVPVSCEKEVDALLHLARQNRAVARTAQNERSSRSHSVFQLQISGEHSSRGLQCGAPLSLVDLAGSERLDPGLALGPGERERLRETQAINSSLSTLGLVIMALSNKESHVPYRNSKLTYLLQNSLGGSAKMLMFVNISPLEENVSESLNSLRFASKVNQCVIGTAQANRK
Briefly: split reporter; Nanoluc luciferase assay in HeLa cells; KIFC1 against 40 genes of the USP family; relative chemiluminescence intensity.

The next assay has as its target GST-USP25 (UniProt Q9UHP3). The assay can be described thus: pull-down; GST-USP25 and His-KIFC1 co-transformed into E. coli BL21 (DE3); bacterial lysate (50 mM Tris-HCl pH 7.4, 150 mM NaCl, 1 mM EDTA, 1% Triton X-100) on Glutathione Sepharose 4B beads, 4 °C, 3 h; anti-His and anti-GST immunoblot.
Assay [4] has as its target T1, Flag-KIFC1 (Kinesin Family Member C1, Flag-tagged). The assay can be described thus: co-IP; Flag-KIFC1 and an HA-tagged partner exogenously co-expressed in HeLa and SiHa cells; NP-40 lysis buffer; anti-Flag affinity gel overnight at 4 °C; immunoblot. The source holds these as a separate data set.

Take “HA-USP25 (from UniProt Q9UHP3 1-1055) (enzyme)”: the binding entry in assay [1] and in assay [2] was “binds” each time.

As for “USP25 of the Nanoluc luciferase assay (from UniProt Q9UHP3 1-1055) (enzyme)”, the binding result in assay [3] is reported as “binds”.

B1: His-KIFC1 (protein, UniProt Q9BW19 1-673)
chain: MDPQRSPLLEVKGNIELKRPLIKAPSQLPLSGSRLKRRPDQMEDGLEPEKKRTRGLGATTKITTSHPRVPSLTTVPQTQGQTTAQKVSKKTGPRCSTAIATGLKNQKPVPAVPVQKSGTSGVPPMAGGKKPSKRPAWDLKGQLCDLNAELKRCRERTQTLDQENQQLQDQLRDAQQQVKALGTERTTLEGHLAKVQAQAEQGQQELKNLRACVLELEERLSTQEGLVQELQKKQVELQEERRGLMSQLEEKERRLQTSEAALSSSQAEVASLRQETVAQAALLTEREERLHGLEMERRRLHNQLQELKGNIRVFCRVRPVLPGEPTPPPGLLLFPSGPGGPSDPPTRLSLSRSDERRGTLSGAPAPPTRHDFSFDRVFPPGSGQDEVFEEIAMLVQSALDGYPVCIFAYGQTGSGKTFTMEGGPGGDPQLEGLIPRALRHLFSVAQELSGQGWTYSFVASYVEIYNETVRDLLATGTRKGQGGECEIRRAGPGSEELTVTNARYVPVSCEKEVDALLHLARQNRAVARTAQNERSSRSHSVFQLQISGEHSSRGLQCGAPLSLVDLAGSERLDPGLALGPGERERLRETQAINSSLSTLGLVIMALSNKESHVPYRNSKLTYLLQNSLGGSAKMLMFVNISPLEENVSESLNSLRFASKVNQCVIGTAQANRK
For B1, in the assay with GST-USP25, the binding result is reported as “binds”.

B2: USP52 of the Nanoluc luciferase assay (enzyme, UniProt Q504Q3 1-1202)
chain: MNFEGLDPGLAEYAPAMHSALDPVLDAHLNPSLLQNVELDPEGVALEALPVQESVHIMEGVYSELHSVVAEVGVPVSVSHFDLHEEMLWVGSHGGHATSFFGPALERYSSFQVNGSDDIRQIQSLENGILFLTKNNLKYMARGGLIIFDYLLDENEDMHSLLLTDSSTLLVGGLQNHIIEIDLNTVQETQKYAVETPGVTIMRQTNRFFFCGHTSGKVSLRDLRTFKVEHEFDAFSGSLSDFDVHGNLLAACGFSSRLTGLACDRFLKVYDLRMMRAITPLQVHVDPAFLRFIPTYTSRLAIISQSGQCQFCEPTGLANPADIFHVNPVGPLLMTFDVSASKQALAFGDSEGCVHLWTDSPEPSFNPYSRETEFALPCLVDSLPPLDWSQDLLPLSLIPVPLTTDTLLSDWPAANSAPAPRRAPPVDAEILRTMKKVGFIGYAPNPRTRLRNQIPYRLKESDSEFDSFSQVTESPVGREEEPHLHMVSKKYRKVTIKYSKLGLEDFDFKHYNKTLFAGLEPHIPNAYCNCMIQVLYFLEPVRCLIQNHLCQKEFCLACELGFLFHMLDLSRGDPCQGNNFLRAFRTIPEASALGLILADSDEASGKGNLARLIQRWNRFILTQLHQDMQELEIPQAYRGAGGSSFCSSGDSVIGQLFSCEMENCSLCRCGSETVRASSTLLFTLSYPDGSKSDKTGKNYDFAQVLKRSICLDQNTQAWCDTCEKYQPTIQTRNIRHLPDILVINCEVNSSKEADFWRMQAEVAFKMAVKKHGGEISKNKEFALADWKELGSPEGVLVCPSIEELKNVWLPFSIRMKMTKNKGLDVCNWTDGDEMQWGPARAEEEHGVYVYDLMATVVHILDSRTGGSLVAHIKVGETYHQRKEGVTHQQWYLFNDFLIEPIDKHEAVQFDMNWKVPAILYYVKRNLNSRYNLNIKNPIEASVLLAEASLARKQRKTHTTFIPLMLNEMPQIGDLVGLDAEFVTLNEEEAELRSDGTKSTIKPSQMSVARITCVRGQGPNEGIPFIDDYISTQEQVVDYLTQYSGIKPGDLDAKISSKHLTTLKSTYLKLRFLIDIGVKFVGHGLQKDFRVINLMVPKDQVLDTVYLFHMPRKRMISLRFLAWYFLDLKIQGETHDSIEDARTALQLYRKYLELSKNGTEPESFHKVLKGLYEKGRKMDWKVPEPEGQTSPKNAAVFSSVLAL
As to B2, the binding entry in assay [3] is reported as “binds”.

B3: USP29 of the Nanoluc luciferase assay (enzyme, UniProt Q9HBJ7 1-922)
chain: MISLKVCGFIQIWSQKTGMTKLKEALIETVQRQKEIKLVVTFKSGKFIRIFQLSNNIRSVVLRHCKKRQSHLRLTLKNNVFLFIDKLSYRDAKQLNMFLDIIHQNKSQQPMKSDDDWSVFESRNMLKEIDKTSFYSICNKPSYQKMPLFMSKSPTHVKKGILENQGGKGQNTLSSDVQTNEDILKEDNPVPNKKYKTDSLKYIQSNRKNPSSLEDLEKDRDLKLGPSFNTNCNGNPNLDETVLATQTLNAKNGLTSPLEPEHSQGDPRCNKAQVPLDSHSQQLQQGFPNLGNTCYMNAVLQSLFAIPSFADDLLTQGVPWEYIPFEALIMTLTQLLALKDFCSTKIKRELLGNVKKVISAVAEIFSGNMQNDAHEFLGQCLDQLKEDMEKLNATLNTGKECGDENSSPQMHVGSAATKVFVCPVVANFEFELQLSLICKACGHAVLKVEPNNYLSINLHQETKPLPLSIQNSLDLFFKEEELEYNCQMCKQKSCVARHTFSRLSRVLIIHLKRYSFNNAWLLVKNNEQVYIPKSLSLSSYCNESTKPPLPLSSSAPVGKCEVLEVSQEMISEINSPLTPSMKLTSESSDSLVLPVEPDKNADLQRFQRDCGDASQEQHQRDLENGSALESELVHFRDRAIGEKELPVADSLMDQGDISLPVMYEDGGKLISSPDTRLVEVHLQEVPQHPELQKYEKTNTFVEFNFDSVTESTNGFYDCKENRIPEGSQGMAEQLQQCIEESIIDEFLQQAPPPGVRKLDAQEHTEETLNQSTELRLQKADLNHLGALGSDNPGNKNILDAENTRGEAKELTRNVKMGDPLQAYRLISVVSHIGSSPNSGHYISDVYDFQKQAWFTYNDLCVSEISETKMQEARLHSGYIFFYMHNGIFEELLRKAENSRLPSTQAGVIPQGEYEGDSLYRPA
For B3, the binding result in assay [3] is listed as “binds”.

B4: HA-MYCBP (protein, UniProt Q99417 1-103)
chain: MAHYKAADSKREQFRRYLEKSGVLDTLTKVLVALYEEPEKPNSALDFLKHHLGAATPENPEIELLRLELAEMKEKYEAIVEENKKLKAKLAQYEPPQEEKRAE
Consider B4, for which the binding result in assay [4] is “binds”.

B5: His-MYCBP (protein, UniProt Q99417 1-103)
chain: MAHYKAADSKREQFRRYLEKSGVLDTLTKVLVALYEEPEKPNSALDFLKHHLGAATPENPEIELLRLELAEMKEKYEAIVEENKKLKAKLAQYEPPQEEKRAE
In the case of B5, the binding result in assay [1] is given as “binds”.
